Data on two molecules can be found in paper PMC6853982.

The chains behind the UniProt entries cited, without tags or fusion partners.
UniProt Q9SAF1: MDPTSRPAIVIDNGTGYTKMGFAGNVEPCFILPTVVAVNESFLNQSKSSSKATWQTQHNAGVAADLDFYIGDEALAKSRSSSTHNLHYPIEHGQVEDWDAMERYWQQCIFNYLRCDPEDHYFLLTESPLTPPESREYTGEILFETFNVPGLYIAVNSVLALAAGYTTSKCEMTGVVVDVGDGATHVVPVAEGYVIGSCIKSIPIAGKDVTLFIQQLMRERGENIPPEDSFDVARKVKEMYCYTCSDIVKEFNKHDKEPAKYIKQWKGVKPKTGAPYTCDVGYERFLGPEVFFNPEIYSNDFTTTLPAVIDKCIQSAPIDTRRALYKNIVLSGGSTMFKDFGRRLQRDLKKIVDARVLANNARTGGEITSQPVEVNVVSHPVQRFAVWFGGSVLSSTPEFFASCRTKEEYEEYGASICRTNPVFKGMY

For assay [1], the target named is T1, GFP-AtEH1/Pan1 T1 (Arabidopsis) (UniProt Q9LM78).
T1 sequence: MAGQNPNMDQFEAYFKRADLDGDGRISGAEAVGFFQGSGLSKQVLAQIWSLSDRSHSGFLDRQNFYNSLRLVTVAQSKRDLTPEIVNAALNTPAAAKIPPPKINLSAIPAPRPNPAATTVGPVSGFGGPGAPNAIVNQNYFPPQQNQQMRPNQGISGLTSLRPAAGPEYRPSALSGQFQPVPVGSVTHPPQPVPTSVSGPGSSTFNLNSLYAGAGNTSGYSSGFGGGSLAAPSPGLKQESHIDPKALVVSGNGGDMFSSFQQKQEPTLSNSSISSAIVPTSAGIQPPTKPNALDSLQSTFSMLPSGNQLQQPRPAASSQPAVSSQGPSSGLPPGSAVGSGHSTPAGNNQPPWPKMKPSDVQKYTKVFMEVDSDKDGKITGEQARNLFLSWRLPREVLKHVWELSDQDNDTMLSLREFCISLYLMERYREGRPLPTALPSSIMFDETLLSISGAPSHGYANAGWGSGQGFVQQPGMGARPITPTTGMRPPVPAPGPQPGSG
Put plainly: FRET or BRET; FRET-FLIM in N. benthamiana leaf cells transiently co-expressing the GFP donor and RFP acceptor fusions; GFP-AtEH1/Pan1 alone as donor control; whole field images. (In general: BRET reads energy transfer from a luciferase to a nearby fluorophore.)

Assay [2] addresses T2, GFP-AtEH1/Pan1 (Arabidopsis) (UniProt Q9LM78).
T2 sequence: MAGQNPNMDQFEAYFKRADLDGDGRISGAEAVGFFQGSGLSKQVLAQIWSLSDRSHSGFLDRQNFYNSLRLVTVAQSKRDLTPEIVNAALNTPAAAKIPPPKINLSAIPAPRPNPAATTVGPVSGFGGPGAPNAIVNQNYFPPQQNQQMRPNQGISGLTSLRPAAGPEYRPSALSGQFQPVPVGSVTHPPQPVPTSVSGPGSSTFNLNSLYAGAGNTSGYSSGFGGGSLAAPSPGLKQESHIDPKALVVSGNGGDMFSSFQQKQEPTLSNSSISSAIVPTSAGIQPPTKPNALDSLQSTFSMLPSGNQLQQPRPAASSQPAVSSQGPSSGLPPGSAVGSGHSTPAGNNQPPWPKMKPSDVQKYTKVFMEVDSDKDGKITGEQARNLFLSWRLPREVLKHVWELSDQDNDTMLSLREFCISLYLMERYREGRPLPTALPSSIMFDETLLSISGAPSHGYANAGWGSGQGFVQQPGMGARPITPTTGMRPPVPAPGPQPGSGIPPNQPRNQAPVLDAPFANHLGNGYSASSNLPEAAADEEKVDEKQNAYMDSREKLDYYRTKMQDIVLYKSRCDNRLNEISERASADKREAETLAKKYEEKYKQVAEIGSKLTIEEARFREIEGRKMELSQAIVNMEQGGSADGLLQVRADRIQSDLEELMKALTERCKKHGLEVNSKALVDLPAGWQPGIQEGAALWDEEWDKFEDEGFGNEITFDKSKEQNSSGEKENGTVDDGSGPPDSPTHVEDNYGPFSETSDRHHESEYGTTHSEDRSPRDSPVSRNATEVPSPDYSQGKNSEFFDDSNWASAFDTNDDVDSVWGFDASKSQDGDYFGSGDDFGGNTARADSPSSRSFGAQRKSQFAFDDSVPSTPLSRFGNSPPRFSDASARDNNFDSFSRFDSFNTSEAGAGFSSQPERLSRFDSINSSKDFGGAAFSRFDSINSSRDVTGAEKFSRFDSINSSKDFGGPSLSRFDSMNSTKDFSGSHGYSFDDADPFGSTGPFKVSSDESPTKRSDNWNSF
Put plainly: co-IP; GFP-Trap_A beads on N. benthamiana leaf extract (10 mM Tris-HCl pH 7.5, 150 mM NaCl, 0.5 mM EDTA, 0.5% Triton-X100), 2 h on ice; supernatant and pellet analysed by western blot. In general terms: In western blotting, separated proteins are transferred to a membrane and probed.

These are yes or no findings as the source states them, for the method shown. In cells and extracts the contact can be indirect. Some entries that bind do so weakly or less than the wild type. Tags and fused reporters may be left off the sequences shown.

For RFP-ARP3 (from UniProt Q9SAF1 1-427), the binding result in assay [1] is reported as “no binding”.

B1: RFP-VAP27-1 (protein, UniProt Q8VZ95 1-256)
chain: MSNIDLIGMSNRDLIGMSNSELLTVEPLDLQFPFELKKQISCSLYLTNKTDNNVAFKVKTTNPKKYCVRPNTGVVLPRSTCEVLVTMQAQKEAPSDMQCKDKFLLQGVIASPGVTAKEVTPEMFSKEAGHRVEETKLRVTYVAPPRPPSPVHEGSEEGSSPRASVSDNGHGSEFSFERFIVDNKAGHQENTSEARALITKLTEEKQSAIQLNNRLQRELDQLRRESKKSQSGGIPFMYVLLVGLIGLILGYIMKRT
Consider B1, for which, in assay [2], the binding entry is “binds”.
